Measurements from “University of Dundee, Small-Polar-MMV Screening Library” (2021), ChEMBL document CHEMBL3988442.

Values are the deposited “Percent Effect”, in %.
The record does not define 0% and 100%; most values in the screen are far below 50% and negative numbers occur (in some assays of this library far below -100).
Compounds were drawn at random from those tested, without regard to their results.

Mtb growth Cornell: 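Whole-cell assay for inhibitors of Mycobacterium tuberculosis growth, labelled Cornell in the record; the read-out is not stated. The concentration is filed as 10 mM, unlikely as a test dose, so the dose is not known. Higher means stronger inhibition (inferred from two other growth screens of the library). Of about 53,000 compounds tested this way, about 900 (1.7%) reached 50% or more in at least one test.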
Mtb heat-shock: 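Assay on Mycobacterium tuberculosis, filed only as a heat shock assay from Cornell; the read-out is not stated. The concentration is filed as 10 mM, unlikely as a test dose, so the dose is not known. Higher reads as stronger inhibition (inferred: compounds with an IC50 in retests scored well above the rest). Of about 69,000 compounds tested this way, about 930 (1.4%) reached 50% or more in at least one test.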

O=C(NCCc1nccs1)C(c1ccccc1)n1cnnn1 (stereo not shown) read Mtb growth Cornell: 29%; Mtb heat-shock: -6.249%.
Cc1ccc([C@@H]2CN(C(=O)c3csc(C)n3)C[C@H]2NC(=O)C2CC2)cc1 read Mtb growth Cornell: -7.415%; Mtb heat-shock: -0.5453%.
CCOc1ncccc1C(=O)Nc1c(C)cnn1CC1CC1 read Mtb growth Cornell: -9.451%; Mtb heat-shock: 3.213%.
CCOCCCNC(=O)CN(c1cccc(F)c1)S(C)(=O)=O read Mtb heat-shock: -1.347%.
N#Cc1cccc(C(=O)N2CCn3c(Cn4cncn4)cnc3C2)c1 read Mtb growth Cornell: 12.42%; Mtb heat-shock: -8.812%.
Cc1cnn(C2CN(CCOc3ccc(C#N)cc3)C2)c1 read Mtb heat-shock: 7.047%.
COc1ncccc1C1CC(=O)NCc2nc3sccn3c21 (stereo not shown) read Mtb growth Cornell: -33.29%; Mtb heat-shock: -16.8%.
CN(Cc1ccc(Cl)s1)C(=O)CN(C)C1CCCc2ccccc21 (stereo not shown) read Mtb heat-shock: 4.25%.
CN(CC(=O)Nc1cccnc1)CC1CCCN1c1cccnn1 (stereo not shown) read Mtb growth Cornell: -28.48%; Mtb heat-shock: 11.41%.
Cc1ccc(CN2Cc3nnn(C)c3C(COCC3CC3)C2)o1.O=C(O)C(F)(F)F (stereo not shown) read Mtb growth Cornell: 9.971%; Mtb heat-shock: 0.9247%.
Cc1ccc(C(N)c2cccs2)cc1 (stereo not shown) read Mtb growth Cornell: -12.16%; Mtb heat-shock: 24.26%.
[H][C@@]12C[C@H](C(=O)N(C)C)[C@@]([H])(CN(S(=O)(=O)CC(C)C)C1)O2 read Mtb growth Cornell: -13.42%; Mtb heat-shock: 1.328%.
Cc1cc(C)n(C2CCN(S(=O)(=O)N3CCOCC3)CC2)n1 read Mtb growth Cornell: -10.91%; Mtb heat-shock: 3.287%.
Cc1nc(O)cc(C2CCCN(Cc3c(Cl)cncc3Cl)C2)n1 (stereo not shown) read Mtb growth Cornell: 2.209%; Mtb heat-shock: -32.74%.
NCc1cn(-c2ccccc2C(=O)NCc2cccc(Cl)c2)cn1 read Mtb heat-shock: -3.482%.
CC(=O)c1cccc(OCC(=O)NS(=O)(=O)c2ccc(C)s2)c1 read Mtb growth Cornell: 19.92%; Mtb heat-shock: 3.01%.
CCc1nc(CN(C(C)=O)C2CCN(Cc3ccccc3F)C2)no1 (stereo not shown) read Mtb heat-shock: 0.08817%.
[H][C@@]12CCN(Cc3cnn(C)c3)C[C@@]1([H])O[C@H](c1nc(C)c(C)s1)C2 read Mtb growth Cornell: 34%; Mtb heat-shock: -14%.
Cc1cc(Cc2ccccc2)cc(C2CCCNC2)n1 (stereo not shown) read Mtb growth Cornell: 19.51%; Mtb heat-shock: -1.453%.
O=C1NCC(C(=O)N(Cc2ccc(C(F)(F)F)cc2)C2CC2)N1 (stereo not shown) read Mtb growth Cornell: -5.749%; Mtb heat-shock: -5.306%.
O=C(c1cn(-c2ccccc2)nn1)N1CCOCC(O)C1 (stereo not shown) read Mtb heat-shock: 0.01238%.
CN(c1ncccc1CNS(=O)(=O)N1CCOCC1)C1CCCCC1 read Mtb growth Cornell: -6.497%; Mtb heat-shock: -11.12%.
CC1CCCN(Cc2ccc(CNC(=O)NCc3ccon3)cc2)C1 (stereo not shown) read Mtb heat-shock: -9.973%.
Cc1[nH]ccc1C(=O)Nc1cccc(CN2CCC(O)CC2)c1 read Mtb growth Cornell: 0.7466%; Mtb heat-shock: -8.902%.
CCNC(=O)CN(CC)Cc1nc2c(F)cccc2n1CC read Mtb heat-shock: -12.59%.
Cc1cc(C)cc(C(=O)N2CCCN(CC(N)=O)CC2)c1 read Mtb growth Cornell: -5.839%; Mtb heat-shock: 1.788%.
[H][C@@]12CS(=O)(=O)C[C@]1([H])N(Cc1nccs1)CCN2CCOC read Mtb heat-shock: -4.414%.
NC(=O)NC(=O)CCN1CCCN(c2nccs2)CC1 read Mtb heat-shock: 91.9%.
CC1CCN(c2ccc(=O)n(CC(=O)N(C)Cc3ccccc3)n2)CC1 read Mtb growth Cornell: 16.66%; Mtb heat-shock: 17.33%.
O=C(CS(=O)(=O)Cc1cccc(Br)c1)Nc1cn[nH]c1 read Mtb growth Cornell: 32.76%; Mtb heat-shock: 17.24%.
COc1coc(C(=O)Nc2nc(-c3cccnc3)cs2)cc1=O read Mtb growth Cornell: 11.19%; Mtb heat-shock: -0.8179%.

The first 2 entries again:

compound	Mtb growth Cornell	Mtb heat-shock
O=C(NCCc1nccs1)C(c1ccccc1)n1cnnn1 (stereo not shown)	29	-6.249
Cc1ccc([C@@H]2CN(C(=O)c3csc(C)n3)C[C@H]2NC(=O)C2CC2)cc1	-7.415	-0.5453